These are yes or no findings as the source states them, for the method shown. Binding seen in cells or lysates may run through a third protein. Some results given as binding are weak or reduced against the parent protein; the word gives no strength. Where a sequence is shown, tags or fusion partners need not be part of it.

By UniProt entry, the sequences of proteins in these tests, tags left out.
UniProt P06733, whole entry: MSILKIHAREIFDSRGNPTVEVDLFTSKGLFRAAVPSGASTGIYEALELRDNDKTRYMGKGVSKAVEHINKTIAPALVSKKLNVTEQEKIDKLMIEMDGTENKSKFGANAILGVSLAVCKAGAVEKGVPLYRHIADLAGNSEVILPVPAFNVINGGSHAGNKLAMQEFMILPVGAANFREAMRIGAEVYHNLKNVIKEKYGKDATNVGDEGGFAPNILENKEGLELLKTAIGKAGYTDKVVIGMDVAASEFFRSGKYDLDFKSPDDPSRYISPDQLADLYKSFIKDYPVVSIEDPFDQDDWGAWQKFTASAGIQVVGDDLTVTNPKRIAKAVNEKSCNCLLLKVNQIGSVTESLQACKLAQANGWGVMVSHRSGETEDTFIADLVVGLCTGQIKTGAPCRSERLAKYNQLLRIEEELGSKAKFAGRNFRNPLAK

The assay concerns the target Enolase-1 (human (endogenous in H357)) (UniProt P06733). Briefly: co-IP.

B1: CKLF-like MARVEL transmembrane domain containing protein 6 (CMTM6) (protein, UniProt Q9NX76 1-183)
chain: MENGAVYSPTTEEDPGPARGPRSGLAAYFFMGRLPLLRRVLKGLQLLLSLLAFICEEVVSQCTLCGGLYFFEFVSCSAFLLSLLILIVYCTPFYERVDTTKVKSSDFYITLGTGCVFLLASIIFVSTHDRTSAEIAAIVFGFIASFMFLLDFITMLYEKRQESQLRKPENTTRAEALTEPLNA
Consider B1, for which the binding result is recorded as “binds”.

B2: CMTM6 (Myc-DDK-tagged), from pCMV6-Entry-CMTM6 (protein, UniProt Q9NX76 1-183)
chain: MENGAVYSPTTEEDPGPARGPRSGLAAYFFMGRLPLLRRVLKGLQLLLSLLAFICEEVVSQCTLCGGLYFFEFVSCSAFLLSLLILIVYCTPFYERVDTTKVKSSDFYITLGTGCVFLLASIIFVSTHDRTSAEIAAIVFGFIASFMFLLDFITMLYEKRQESQLRKPENTTRAEALTEPLNA
Take B2: the binding result is listed as “binds”.

Source of the values: paper doi:10.1101/2020.03.18.993774.
